For this test, the target named is CD40 (mouse (endogenous in NOD and BALB/c splenic CD4loCD40+ T cells)) (UniProt P27512). The test can be described thus: affinity purification with mass spectrometry; CD40 immunoprecipitated (FGK45-conjugated magnetic beads) from NOD CD4loCD40+ T cell whole cell extracts; proteins separated by SDS-PAGE, bands identified by LC-LC-MS.

Chains of the proteins cited; added tags and fusions are not shown. Lines headed by an entry give the natural chain unless they say otherwise; changes in a name come on top. Residues count along the entry.
UniProt P27512, residues 20-289: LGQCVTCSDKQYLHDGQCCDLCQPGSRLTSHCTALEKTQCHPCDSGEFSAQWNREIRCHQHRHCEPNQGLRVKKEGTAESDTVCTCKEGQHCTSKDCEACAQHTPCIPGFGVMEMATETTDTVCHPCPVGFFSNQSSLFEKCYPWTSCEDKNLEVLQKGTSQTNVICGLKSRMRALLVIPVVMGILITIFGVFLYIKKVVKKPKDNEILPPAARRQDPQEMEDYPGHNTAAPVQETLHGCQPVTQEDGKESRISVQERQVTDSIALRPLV
UniProt Q60932: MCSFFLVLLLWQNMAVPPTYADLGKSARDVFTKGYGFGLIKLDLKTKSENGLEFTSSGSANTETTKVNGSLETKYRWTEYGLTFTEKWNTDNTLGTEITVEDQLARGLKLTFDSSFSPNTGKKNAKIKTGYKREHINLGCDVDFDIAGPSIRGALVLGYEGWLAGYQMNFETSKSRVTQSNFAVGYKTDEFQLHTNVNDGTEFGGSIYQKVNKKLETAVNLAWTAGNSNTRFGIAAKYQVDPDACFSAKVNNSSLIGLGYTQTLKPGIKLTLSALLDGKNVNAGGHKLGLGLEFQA

Consider one substance from publication PMC3369903.

No constants are given. Whether binding was seen depends on the method and setting. In cells and extracts the contact can be indirect. A yes stands for co-enrichment or nearness to the bait. Other partners may have been found.

As to “VDAC1 (Voltage-Dependent Anion-selective Channel protein) (from UniProt Q60932)”, the binding result is recorded as “binds”.
